# Assay results as given in PubChem BioAssay AID720504 (National Center for Advancing Translational Sciences (NCATS), 2013).
# The chains behind the UniProt entries cited, without tags or fusion partners.
# UniProt P53350, whole entry, looked up: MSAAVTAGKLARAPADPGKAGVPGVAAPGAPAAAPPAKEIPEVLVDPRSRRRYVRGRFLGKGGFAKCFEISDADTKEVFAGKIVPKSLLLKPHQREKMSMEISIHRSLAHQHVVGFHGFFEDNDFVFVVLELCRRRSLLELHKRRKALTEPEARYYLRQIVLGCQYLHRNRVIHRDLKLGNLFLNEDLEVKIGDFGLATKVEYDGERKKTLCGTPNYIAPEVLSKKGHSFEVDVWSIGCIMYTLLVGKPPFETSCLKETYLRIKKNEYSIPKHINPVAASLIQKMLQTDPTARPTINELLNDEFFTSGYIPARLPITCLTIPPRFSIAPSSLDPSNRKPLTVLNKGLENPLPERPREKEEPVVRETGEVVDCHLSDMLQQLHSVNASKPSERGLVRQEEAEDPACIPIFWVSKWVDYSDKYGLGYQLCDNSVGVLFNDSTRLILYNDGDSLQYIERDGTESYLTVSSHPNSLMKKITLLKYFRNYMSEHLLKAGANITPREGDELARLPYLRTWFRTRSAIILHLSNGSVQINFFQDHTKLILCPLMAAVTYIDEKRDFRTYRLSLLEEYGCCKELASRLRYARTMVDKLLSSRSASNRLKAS
# Among all 360,000 compounds or so, about 10,000 (2.8%) were called active. The inconclusive results got no clear call from the source; some entries with a clear call stand among them for comparison. Calls come from the whole dose curve; as a rule, active = well fitted inhibition curve with a large enough effect; inconclusive = small, poorly fitted or top-dose-only effect; inactive = flat fitted curve, though single readings scatter. A potency beside an inconclusive call is a rough fit, not a confirmed value. Where a SMILES comes first, the peptide text is derived from it. The star is where a group is joined. Boc = CC(C)(C)OC(=O)*; Bn = c1ccc(C*)cc1; NHNH2 = NN*
# Molecular target: Serine/threonine-protein kinase PLK1 (Homo sapiens) (UniProt P53350)
# Test: qHTS for Inhibitors of PLK1-PDB (polo-like kinase 1 - polo-box domain): Primary Screen; note: nearly all actives have a fitted effect of over 65% in size; for max response, negative = inhibition: series mostly up to about 57 µM
# Settings: Plk1 PBD binding of FITC phosphopeptide, fluorescence polarization
# % is set by controls: 0 for no effect and ±100 for the full control effect; potency is the fitted concentration of half-maximal effect.
Compound,Potency,"max response, negative = inhibition"
O=C(NCCO)c1cc2c(s1)CCC2,"inconclusive: 16.8 µM [inhibitor, partial curve]",
Cc1nn(-c2ccccc2)c2c1C1(C(=O)N3c4c(cccc41)C(C)CC3(C)C)C(C#N)=C(N)O2 (stereo not given),"inconclusive: 16.8 µM [inhibitor, partial curve]",
COc1ccc(NC(=O)COc2ccc(-c3nn(C)c(=O)c4ccccc34)cc2)cc1,active: 23.8 µM,
N#CCC(=O)c1sccc1-n1cccc1,"inconclusive: 33.6 µM [inhibitor, single point]",
Cn1c(=O)[nH]c(=O)c2c1nc([N+](=O)[O-])n2Cc1ccccc1,active: 2.38 µM,
CC(C)N=C1SC(CC(=O)Nc2ccccc2)C(=O)N1C(C)C (stereo not given),"inconclusive: 7.52 µM [inhibitor, partial curve]",
O=c1c(-c2ccco2)[n+]([O-])c2ccccc2n1OCc1c(F)cccc1F,"inconclusive: 0.474 µM [inhibitor, full curve, poor fit]",
COc1ccc(Br)cc1CN(C)C(C)C(=O)Nc1cccc(C(C)=O)c1 (stereo not given),"inconclusive: 29.9 µM [inhibitor, partial curve]",
CCc1ccc(NC(=O)/C(C#N)=C/c2ccncc2)cc1,"inconclusive: 13.4 µM [inhibitor, partial curve]",
CCOC(=O)N1CCN(C(=O)CSc2ccc(Cl)cc2)CC1,"inconclusive: 26.7 µM [inhibitor, partial curve]",
CC1(C)CC(=O)C=C(c2ccccc2CO)C1=O,,inactive: -0.138%
O=C(NC(=S)Nc1ccccc1[N+](=O)[O-])c1cncc(Br)c1,"inconclusive: 23.8 µM [inhibitor, partial curve]",
COc1ccc(NC(=S)N(CCc2ccncc2)C(C)C)cc1Cl,"inconclusive: 29.9 µM [inhibitor, single point]",
CC(C)CC(NC(=O)C(COCc1ccccc1)NC(=O)OC(C)(C)C)C(=O)NN (stereo not given) (Boc-Ser(Bn)-Leu-NHNH2; configuration not given here),active: 26.7 µM,
CCOc1ccc(N2C(=O)CC(N(Cc3ccco3)C(=O)CC)C2=O)cc1 (stereo not given),active: 26.7 µM,
CCC(CC)c1nnc(NS(=O)(=O)Cc2ccccc2)s1,"inconclusive: 23.8 µM [inhibitor, partial curve]",
CCN(CC)S(=O)(=O)c1ccc2nc(CCl)[nH]c2c1,,inconclusive: -30.6% [inhibitor]
O=C(Nc1nccs1)[C@@H]1CC=C[C@@H]2CCN(Cc3ccccc3)C(=O)[C@@H]21,"inconclusive: 29.9 µM [inhibitor, single point]",
CCOc1ccc(S(=O)(=O)N2CN(c3cccc(C(C)=O)c3)c3nc4ccccc4nc32)cc1,,inactive: -6.92%
CN(C)/C=C/C(=O)/C=C/c1ccc(Cl)cc1Cl,"inconclusive: 26.7 µM [inhibitor, partial curve]",
CCCC(=O)Nc1ccc(-c2csc(-c3cccnc3)n2)cc1,"inconclusive: 21.2 µM [inhibitor, single point]",
O=c1[nH]c(/C=C/c2ccccc2)c([N+](=O)[O-])c(=O)[nH]1,,inactive: -20.8%
Cc1cc2nn(-c3ccc(Cl)cc3)nc2cc1N,,inactive: -9.36%
c1csc(-c2ccc3ccccc3n2)c1,,inactive: -2.58%

# Single entries from the list.
# Potency with COc1ccc(Br)cc1CN(C)C(C)C(=O)Nc1cccc(C(C)=O)c1 (stereo not given) is entered as inconclusive: 29.9 µM [inhibitor, partial curve]
# Potency with O=C(Nc1nccs1)[C@@H]1CC=C[C@@H]2CCN(Cc3ccccc3)C(=O)[C@@H]21 is entered as inconclusive: 29.9 µM [inhibitor, single point]
# Potency with CC(C)N=C1SC(CC(=O)Nc2ccccc2)C(=O)N1C(C)C (stereo not given) is entered as inconclusive: 7.52 µM [inhibitor, partial curve]
# Potency with O=C(NC(=S)Nc1ccccc1[N+](=O)[O-])c1cncc(Br)c1 is entered as inconclusive: 23.8 µM [inhibitor, partial curve]

# Following part.

Compound,Potency,"max response, negative = inhibition"
CCOC(=O)C1=C(C)C(c2ccc(OC)cc2)NC(=O)N1 (stereo not given),,inactive: 1.94%
CCCC(=O)c1cc(F)c(N2CCOCC2)cc1C,active: 23.8 µM,
S=C(Nc1cccnc1)NC1CCCC1,,inconclusive: -30.8% [inhibitor]
COC(=O)CSc1cc(C)nc2ccc(OC)cc12,"inconclusive: 26.7 µM [inhibitor, single point]",
c1ccc2c(CSc3nnc(-c4ccncc4)o3)cccc2c1,,inactive: -24%
Cc1sc2ncnc(N(C)Cc3ccco3)c2c1C,,inactive: -1.7%
Cc1cc(Cl)ccc1OCc1n[nH]c(=S)n1C1CCCCC1,"inconclusive: 29.9 µM [inhibitor, single point]",
Cc1cc(C(F)F)nn1CC(=O)NCc1ccccc1F,"inconclusive: 29.9 µM [inhibitor, single point]",
Cc1ccc(C)c(NC(=S)NCCc2ccc(F)cc2)c1,"inconclusive: 8.44 µM [inhibitor, single point]",
COc1ccc(NS(=O)(=O)c2cc(NC(=O)[C@H](C)NC(N)=O)ccc2N2CCCC2)cc1,,inactive: -9.54%
COc1cc(-c2cc(C(=O)Nc3ccc(S(=O)(=O)Nc4ncccn4)cc3)c3ccccc3n2)cc(OC)c1OC,active: 26.7 µM,
CCOC(=O)COc1ccccc1/C=C\[N+](=O)[O-],active: 7.52 µM,
COc1ccc(N(CC(=O)Nc2ccccc2C(N)=O)S(=O)(=O)c2ccc(C)c([N+](=O)[O-])c2)cc1,"inconclusive: 4.74 µM [inhibitor, single point]",
NNC(=S)Nc1ccc(S(=O)(=O)N2CCCCC2)cc1,"inconclusive: 21.2 µM [inhibitor, single point]",
O=C(CSc1nnc2ccccn12)NCCc1ccc(Cl)cc1,,inconclusive: -33.9% [inhibitor]
CCOc1ccc(/C=N/NC(=O)CC(=O)NCc2ccccc2)cc1,,inactive: -20.4%
CCCn1c(SCC(=O)Nc2nonc2C)nnc1-c1ccoc1C,,inconclusive: -33.6% [inhibitor]
COc1ccc(NC(=O)C2CCCN(S(=O)(=O)c3cccc4cccnc34)C2)cc1 (stereo not given),"inconclusive: 23.8 µM [inhibitor, single point]",
CCCCCOc1ccc(C(O)C(CN2CCOCC2)c2ccccc2)cc1 (stereo not given),active: 26.7 µM,
O=C1/C(=C/N(C(=O)c2ccco2)c2ccc(Br)cc2)Sc2ccccc21,"inconclusive: 21.2 µM [inhibitor, partial curve]",
CCS(=O)(=O)N1Cc2ccccc2CC1C(=O)N1CCN(c2ccccc2)CC1 (stereo not given),,inactive: -15.3%
Cc1cc(C)cc(C(=O)NC2C(=O)N3C(C(=O)O)=C(CSc4nnc(C)s4)CSC23)c1 (stereo not given),"inconclusive: 23.8 µM [inhibitor, partial curve]",
CCOC(=O)/C(C#N)=C\C1=C(N2CCOCC2)CC(C)(C)OC1,"inconclusive: 33.6 µM [inhibitor, single point]",
S=c1[nH]nc(COc2ccccc2)n1/N=C/c1ccccc1Br,"inconclusive: 21.2 µM [inhibitor, partial curve]",

Compound,Potency,"max response, negative = inhibition"
O=C1CC(N(O)c2ccccc2)C(=O)N1c1cc(Cl)cc(Cl)c1 (stereo not given),"inconclusive: 23.8 µM [inhibitor, single point]",
CC(C)[C@H](NC(=O)c1cc2cc(Cl)ccc2n1C)C(=O)N1CCC(C(=O)O)CC1,"inconclusive: 84.4 µM [inhibitor, single point]",
Clc1ccc(C2=NNC(=NCc3ccccc3)SC2)cc1,"inconclusive: 23.8 µM [inhibitor, partial curve]",
Cc1sc(NC(=O)c2ccccc2)c(C#N)c1-c1ccccc1,"inconclusive: 23.8 µM [inhibitor, single point]",
Cc1ccc(-c2c(C(=O)NC(C)C)oc(=O)c3ccccc23)cc1,,inactive: -4.48%
CC(=O)N1CCc2cc(S(=O)(=O)NC(CC(C)C)C(=O)N3CCCC3)ccc21 (stereo not given),,inconclusive: -12.7% [inhibitor]
Cn1c(=O)c2c(ncn2CC(=O)Nc2cc(S(=O)(=O)N3CCCCC3)ccc2Cl)n(C)c1=O,"inconclusive: 75.2 µM [inhibitor, partial curve]",
O=c1[nH]c(=S)[nH]cc1Oc1ccc(Br)cc1Br,,inconclusive: -33.9% [inhibitor]
COc1ccccc1CNC(=O)COC(=O)c1cc(-c2ccco2)nc2ccccc12,"inconclusive: 26.7 µM [inhibitor, partial curve]",
O=C(c1cc(-c2ccco2)on1)N1CCc2ccccc2C1,"inconclusive: 29.9 µM [inhibitor, partial curve]",
O=C(Nc1ccccc1F)c1cc(-c2ccco2)nc2ccccc12,,inconclusive: -30% [inhibitor]
c1ccc2nc3c(cc2c1)CCCCC3,active: 3.36 µM,
O=C(CN1CCN(c2cccc(C(F)(F)F)c2)CC1)N(C1CCCC1)C1CCS(=O)(=O)C1 (stereo not given),,inactive: 6.27%
CCOC(=O)N1CCN(C(=O)CCS(=O)(=O)c2cc3c(cc2Cl)NC(=O)CO3)CC1,,inactive: 0.949%
COc1ccc2[nH]c3c(c2c1)CCN1C(=O)C(CC(=O)NCc2ccc(OC)c(OC)c2)C[C@H](C(=O)N2CCCCC2)[C@@]31CCc1ccccc1 (stereo not given in full),active: 21.2 µM,
CCCCNC(=O)C[C@@H]1C[C@@]2(C(=O)OCC)CCC=C2N(CCC2=CCCCC2)C1=O,,inconclusive: -30.8% [inhibitor]
COc1cc(OC)nc(NC(=S)NC(=O)c2ccccc2)n1,"inconclusive: 23.8 µM [inhibitor, partial curve]",
CCC(CC)c1nnc(NC(=O)C2CC(=O)N(C3CCCC3)C2)s1 (stereo not given),"inconclusive: 18.9 µM [inhibitor, partial curve]",
COc1ccc([C@@H]2C(C#N)=C(N)S[C@@H](c3ccccc3)[C@@H]2[N+](=O)[O-])cc1,,inactive: -21.8%
O=[N+]([O-])c1cc(Br)cc(/C=N/n2cnnc2)c1O,"inconclusive: 29.9 µM [inhibitor, partial curve]",
N#Cc1c(SCC(=O)Nc2nncs2)sc2c(O)cc(=O)[nH]c12,"inconclusive: 21.2 µM [inhibitor, partial curve]",
Cc1nc([N+](=O)[O-])c(Br)n1CC(=O)c1ccc(F)cc1,"inconclusive: 18.9 µM [inhibitor, partial curve, poor fit]",
